# According to the supplement of paper PMC3334620:
# Over roughly 33,000 sequences, “E-score (-0.5 to 0.5)” has its median near -0.015; the highest 2% begin near 0.3. The list shows a part of the results.
# Target: T1, Abf1 (UniProt P14164)
# T1 sequence: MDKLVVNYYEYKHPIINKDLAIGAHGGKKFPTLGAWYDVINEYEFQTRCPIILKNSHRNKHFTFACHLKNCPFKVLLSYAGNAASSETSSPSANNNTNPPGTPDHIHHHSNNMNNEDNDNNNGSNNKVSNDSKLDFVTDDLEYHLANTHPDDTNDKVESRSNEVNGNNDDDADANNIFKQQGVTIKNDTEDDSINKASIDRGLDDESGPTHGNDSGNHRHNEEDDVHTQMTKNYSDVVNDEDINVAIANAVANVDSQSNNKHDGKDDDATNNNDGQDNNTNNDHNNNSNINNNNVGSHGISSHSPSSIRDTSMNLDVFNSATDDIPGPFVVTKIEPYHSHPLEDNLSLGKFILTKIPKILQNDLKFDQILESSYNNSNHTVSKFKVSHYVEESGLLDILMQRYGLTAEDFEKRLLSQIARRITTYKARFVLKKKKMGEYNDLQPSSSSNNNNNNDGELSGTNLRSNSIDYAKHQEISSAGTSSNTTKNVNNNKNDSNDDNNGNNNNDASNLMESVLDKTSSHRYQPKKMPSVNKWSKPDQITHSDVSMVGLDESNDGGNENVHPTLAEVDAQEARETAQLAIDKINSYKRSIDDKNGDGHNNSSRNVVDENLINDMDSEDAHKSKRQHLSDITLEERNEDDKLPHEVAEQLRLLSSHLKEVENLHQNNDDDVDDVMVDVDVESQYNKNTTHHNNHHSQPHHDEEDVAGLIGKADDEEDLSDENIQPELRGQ
# Experiment: PBM E-score (8-mer binding enrichment) (E-score (-0.5 to 0.5)); higher = stronger / more preferred TF binding
# Settings: protein concentration: 200 nM; construct: GST-full length
# In short: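 Full-length yeast transcription factors or their DNA-binding domains, GST-tagged and expressed with PURExpress, were applied at about 100-200 nM to universal all-10-mer Agilent arrays. These arrays had been made double-stranded by primer extension on fresh or once-stripped slides. Detection used fluorescent anti-GST, normalisation used masliner, and E-scores for ungapped eight-base words pooled with reverse complements came from the Universal PBM Analysis Suite.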
row,Sequence,PBM E-score
1,ACCGTACA,0.327
2,AACGACGA,0.346
3,GAGAGCTA,-0.051
4,CTGACTAC,-0.02
5,ACTAAACG,0.165
6,GTACGCCA,-0.173
7,ATTGACCC,0.0512
8,ACGGCGCT,0.09
9,ACTTAAGG,-0.0317
10,ATAGGTGG,-0.0214
11,ACTCAACG,0.161
12,CCTAAATA,0.0526
13,AGCACCTC,-0.158
14,ACCCCAAA,-0.0257
15,GGGGCCCA,-0.256
16,CAAATCAG,0.0917
17,TACGACGA,0.329
18,GGCTCATA,-0.186
19,CTGATAGC,-0.128
20,CATTCCGA,-0.00972
21,AAACAAAC,0.0259
22,AAGATCTG,-0.15
23,CTCCCAAA,0.126
24,AAAATGGT,0.166
25,CGCATCAA,0.081

row,Sequence,PBM E-score
1,ATATTTCA,0.23
2,AACAAGGG,-0.338
3,CACGTCCC,-0.0203
4,AGGTTGAA,0.0563
5,AAGAGCTG,-0.176
6,AAATACCG,0.0575
7,ATGTCCTA,0.143
8,ACATCCCT,0.0803
9,TGTAGGAA,-0.084
10,CCTGTTTC,-0.0494
11,CCGAAATA,0.12
12,ATTGAAAG,-0.00524
13,AGCAGTCA,-0.114
14,AGGCCCAA,-0.146
15,TTATAGAA,0.122
16,CGCCACAG,-0.0345
17,CCTGCAGC,-0.0974
18,CCGTTACA,0.192
19,GCCGCATA,0.0431
20,TATCCATA,0.126
21,ACTTTTGG,0.00974
22,AAACCGTG,0.111
23,TGCCAACA,0.114
24,TATCGGGA,-0.151
25,AAATAGAT,0.146

row,Sequence,PBM E-score
1,AGTTAGTG,-0.111
2,ACACGGCT,0.076
3,AATTGCTG,0.136
4,ATACCAAC,0.0466
5,GTCAGACA,-0.0287
6,ATGCGGCC,-0.109
7,GCCATGAA,-0.0667
8,CATACGCG,-0.0647
9,CCCTTGCA,-0.341
10,GGAGACGA,0.187
11,CCAATGAC,0.094
12,CGGCCACC,-0.142
13,TAACCCCA,-0.223
14,GCATCGAC,0.104
15,TCCTAAAA,0.118
16,CACCAGAA,-0.0535
17,AGGACACA,0.0154
18,GATGACGA,0.265
19,CTTCCGAA,0.0241
20,ATCAGCTG,0.153
21,CCAGGCGA,-0.161
22,GATCGTTA,0.224
23,CTAGAAGA,-0.116
24,ACCGGCCC,-0.286
25,AAGCTCCA,-0.28

row,Sequence,PBM E-score
1,TTAGGAAA,0.00982
2,CATTCCAA,0.0167
3,CGCCAGAA,-0.0306
4,CATAAAGC,-0.057
5,ATACACAG,-0.095
6,GGGTTATA,-0.105
7,CGGGTATC,0.0428
8,GCGGTCGA,0.042
9,TGGGGCAA,-0.281
10,AGGAATAC,-0.2
11,ATATTTAG,0.207
12,AATTTCGC,-0.0531
13,ATACGGCG,0.384
14,ATAGCATC,-0.029
15,GATCCGGA,-0.127
16,GAAAATCA,0.291
17,CAGGACAA,0.231
18,AGTCATGC,0.116
19,CCCACGTA,0.0479
20,CCGTACGA,0.451
21,CCGGCCGC,-0.279
22,AGGAAATA,0.221
23,ACACTCAG,0.116
24,CTTCACCA,-0.178
25,CTCTAGGA,-0.15

row,Sequence,PBM E-score
1,CTGAAATC,0.0623
2,AAAAAAGG,0.0797
3,AATTGTAT,0.158
4,ATTTTGGA,0.118
5,CACTTCCC,0.0785
6,ACAGTGTC,-0.155
7,TGTCAAAA,0.139
8,AGGAATCA,0.111
9,AGCCCTGA,0.0154
10,GTTGTGTA,0.00481
11,GAGTCGTA,0.192
12,ACTGAATC,-0.0997
13,GGCCCGTA,0.0104
14,AATTCTAT,-0.0344
15,CCTTTGCG,-0.187
16,AGGAACCA,-0.149
17,CCACCCCC,-0.299
18,CTTGTATA,-0.0557
19,CAAGAAAG,-0.00869
20,CCAATCAC,0.0912
21,TCCCGGCA,-0.134
22,TCTAACAA,0.0754
23,ATGTGCTG,0.0573
24,AGTACTGC,-0.239
25,GTCTGTGA,-0.00952

# Laid out differently: results already given
row | Sequence | PBM E-score
20 | CCAATCAC | 0.0912
21 | TCCCGGCA | -0.134
22 | TCTAACAA | 0.0754
23 | ATGTGCTG | 0.0573

# Following part:

row,Sequence,PBM E-score
1,AGATGTAC,0.0677
2,ATTATCAG,0.0821
3,ATACAGGC,-0.123
4,CCTGCAAC,0.0372
5,ATTAAATA,0.212
6,CGATGAGA,0.19
7,AGGGTAAC,-0.188
8,GTATAGAC,0.0256
9,AGCAGGTA,-0.151
10,CCTATGTA,-0.116
11,GCAGATGA,-0.0493
12,CAAACCGG,-0.136
13,CGCAAACG,0.252
14,ACCAAGGC,-0.275
15,CGGCGCTA,-0.0694
16,ACGGTAAC,0.118
17,AAGGTCCC,-0.0487
18,AGTGTCCG,0.00779
19,ATAGTCAC,0.256
20,AGGATATC,0.24
21,ATCCGGGA,-0.19
22,GCTCTGAA,0.0301
23,CGATTCAA,-0.0109
24,CAGACCGA,-0.0525
25,CTTGATCA,0.183

# For convenience, part of the list above.
row,Sequence,PBM E-score
13,CGCAAACG,0.252
14,ACCAAGGC,-0.275
15,CGGCGCTA,-0.0694
16,ACGGTAAC,0.118

# Next records follow:

row,Sequence,PBM E-score
1,ACGAATCT,0.19
2,GCCACAAA,0.034
3,GGGCTCAC,-0.0271
4,CATGTGGA,-0.0725
5,ATCACACC,-0.0501
6,CTCTACAC,-0.0361
7,AGACGAAC,0.24
8,ACCAGGTC,-0.154
9,AGGACGTA,-0.0356
10,GGTCGGAA,-0.0499
11,AATGTCAA,-0.00569
12,AGACAACC,0.0479
13,CAGTTTTC,0.00232
14,AGCCTGAG,-0.27
15,AAAACAGG,-0.148
16,CAGTCAAC,-0.172
17,ATGCACAG,-0.151
18,TATGCAGA,0.128
19,AGCAGCCC,-0.25
20,ACATAAAG,0.0586
21,GGGCTCTA,-0.22
22,CATTAAGA,-0.0848
